For series [1] the following is noted: CAD patients, cited from earlier work; for reduction in lipid-normalized plasma concentration: N=69.
The nature of series [2]: nitration of plasma γ-tocopherol during FeCl3-induced thrombosis. As to conditions: anesthetized rats, FeCl3-laden patch on descending aorta, HPLC-ECD. It is filed as in vivo, rat.
The conditions of series [3]: chronic smokers; cited from earlier work.
The nature of series [4]: plasma concentrations of tocopherols and 5-NO2-γ-tocopherol in volunteers. Format: in vivo, human. The settings on record: mean ± SEM. From the text:
Smoking is recognized as a major contributing factor to heart disease and γ-T reportedly decreases more than α-T in smokers. Hypertension is also a strong risk factor for heart disease. […] Seven subjects indicated a chronic hypertensive condition. As outlined in Table I, γ-tocopherol tended to decrease in hypertensive subjects while nitration products tended to increase in both smokers and hypertensive subjects. This was the trend regardless of whether the tocopherol concentrations were normalized to plasma triglycerides (Table I).

For some assays here: Some results come without the dose or concentration used.

As to `Cc1c(O)cc2c(c1C)O[C@](C)(CCC[C@H](C)CCC[C@H](C)CCCC(C)C)CC2` [γ-tocopherol], in series [1], the “reduction in lipid-normalized plasma concentration” value is given as 25% and the “decrease of the ratio of γT/αT” value is recorded as 35%. In addition, the “change of plasma level during FeCl3-induced thrombosis” value (shortened to “change”) in series [2] was “decrease”. Also, in series [3], the “reduction of plasma level” value was “more than 50%”.
Regarding `Cc1c(C)c2c(c(C)c1O)CC[C@@](C)(CCC[C@H](C)CCC[C@H](C)CCCC(C)C)O2` [α-tocopherol, reference compound], the “reduction in lipid-normalized plasma concentration” value in series [1] is “statistically unaffected”. The “change” value in series [2] is given as “not substantially affected”. Further, the “reduction of plasma level” value in series [3] is recorded as 20-25%.
In the case of `Cc1c(C)c2c(c([N+](=O)[O-])c1O)CCC(C)(CCCC(C)CCCC(C)CCCC(C)C)O2` (centres unmarked) [5-NO2-γ-tocopherol, 5-nitro-γ-tocopherol], in series [2], the “change” value is “formed within minutes after initiation of thrombosis and increased steadily”. For the same compound, the “5-NO2-γ-toc/y-toc × 1000” value came to 8.20 ± 2.21 in series [4] (hypertensives, N = 7); 3.49 ± 0.74 in series [4] (population, N = 54); 5.47 ± 1.96 in series [4] (smokers, N = 7).

The record behind these values is US6346544B2, “Desmethyl tocopherols for protecting cardiovascular tissue” (Oklahoma Medical Research Foundation, priority 2000, dated 2002).
